In publication PMC10573421:
No constants are given. Whether binding was seen depends on the method and setting. Binding seen in cells or lysates may run through a third protein. Some results given as binding are weak or reduced against the parent protein; the word gives no strength.

Sequences of proteins named here, by UniProt entry; tags and fusion partners are left off. Residues count along the entry.
UniProt P78504, residues 34-1218: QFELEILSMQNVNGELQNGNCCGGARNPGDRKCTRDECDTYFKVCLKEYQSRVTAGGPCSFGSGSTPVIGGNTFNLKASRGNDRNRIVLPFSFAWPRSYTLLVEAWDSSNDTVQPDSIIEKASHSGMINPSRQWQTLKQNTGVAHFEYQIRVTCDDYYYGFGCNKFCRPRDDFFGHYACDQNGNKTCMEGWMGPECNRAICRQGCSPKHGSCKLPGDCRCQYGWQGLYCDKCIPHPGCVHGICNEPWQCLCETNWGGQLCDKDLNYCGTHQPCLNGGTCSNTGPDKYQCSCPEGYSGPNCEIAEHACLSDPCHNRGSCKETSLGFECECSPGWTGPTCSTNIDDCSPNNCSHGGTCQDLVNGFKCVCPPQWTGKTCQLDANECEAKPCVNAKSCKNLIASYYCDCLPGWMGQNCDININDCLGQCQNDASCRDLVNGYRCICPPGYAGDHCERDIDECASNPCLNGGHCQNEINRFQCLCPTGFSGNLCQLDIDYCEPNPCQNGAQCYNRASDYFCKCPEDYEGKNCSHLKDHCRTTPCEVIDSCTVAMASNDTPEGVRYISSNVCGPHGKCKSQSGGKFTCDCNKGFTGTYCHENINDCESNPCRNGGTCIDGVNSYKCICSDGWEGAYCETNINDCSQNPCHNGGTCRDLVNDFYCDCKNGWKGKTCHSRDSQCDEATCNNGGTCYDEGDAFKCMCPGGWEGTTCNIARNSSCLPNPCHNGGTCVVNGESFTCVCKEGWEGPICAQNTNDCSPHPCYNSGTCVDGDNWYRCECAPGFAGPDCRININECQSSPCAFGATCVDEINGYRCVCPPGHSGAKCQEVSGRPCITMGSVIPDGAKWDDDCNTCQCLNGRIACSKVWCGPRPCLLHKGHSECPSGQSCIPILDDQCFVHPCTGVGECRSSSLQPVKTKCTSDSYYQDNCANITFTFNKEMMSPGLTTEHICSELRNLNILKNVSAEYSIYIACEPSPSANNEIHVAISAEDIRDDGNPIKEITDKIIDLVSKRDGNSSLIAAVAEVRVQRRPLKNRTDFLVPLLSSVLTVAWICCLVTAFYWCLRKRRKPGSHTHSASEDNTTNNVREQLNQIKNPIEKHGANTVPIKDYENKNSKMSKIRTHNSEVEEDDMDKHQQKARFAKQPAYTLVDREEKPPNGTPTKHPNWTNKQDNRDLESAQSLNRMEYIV
UniProt P07355: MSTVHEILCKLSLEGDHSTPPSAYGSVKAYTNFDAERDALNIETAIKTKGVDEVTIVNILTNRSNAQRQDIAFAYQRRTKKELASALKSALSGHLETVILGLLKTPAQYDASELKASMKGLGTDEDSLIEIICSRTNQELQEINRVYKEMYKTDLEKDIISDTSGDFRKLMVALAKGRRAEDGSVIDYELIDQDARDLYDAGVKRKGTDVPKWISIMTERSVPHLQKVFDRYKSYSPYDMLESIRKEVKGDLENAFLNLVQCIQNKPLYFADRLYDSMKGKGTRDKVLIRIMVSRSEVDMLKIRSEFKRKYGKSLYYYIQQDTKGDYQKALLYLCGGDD

Target: C-terminal-HA-tagged JAG1 (UniProt P78504)
Experiment: co-IP; ANXA2-FLAG with C-terminal-HA-tagged JAG1 (Supplementary Figure S1F); cells not given

ANXA2-FLAG (from UniProt P07355 1-339)
binding: binds
